# Some of the results follow. Further columns of the screen follow, without active or inactive calls. Most of these compounds were active or inconclusive in the main read-out, so they are no random draw. Words in brackets tell the shape of the fitted curve; partial curves, single points and poor fits give uncertain potencies.
# Experiment: qHTS Assay to Find Inhibitors of Chronic Active B-Cell Receptor Signaling
# Conditions: ABC-DLBCL IkBa-CBG/CBR reporter, luminescence ratio (green luciferase fused to IkBa over red control in TMD8 lymphoma cells), 4 h
# Summary of the method: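 Cell line TMD8 (human ABC DLBCL), stably expressing tet-inducible CBG68-IkBa fusion and CBR; IMDM/0.5% FBS; cpd up to 46 uM; dox induction, 4 h, 37C/5% CO2; dual luminescence; green/red ratio; MG132 control.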
# [1] = measured here: CBR red luminescence, cell number
# [2] = measured here: IkBa-CBG green luminescence
Structure (SMILES),AC50 [1],AC50 [2]
N#Cc1ccccc1S(=O)(=O)N1CCN(C(=O)CN2C(=O)NC3(CCCC3)C2=O)CC1,"32.6 µM [falling, partial curve, poor fit]",–
Cn1c(NCc2c(O)ccc3ccccc23)nc2ccccc21,"32.6 µM [falling, partial curve, poor fit]",–
CCCn1c2ccccc2c2cnn(CC(=O)NCCN(CC)CC)c(=O)c21,"35.5 µM [falling, single point]",–
COc1cccc(NC(=O)CSc2nc3ccccc3c(=O)n2C)c1,"6.31 µM [falling, partial curve, poor fit]",–
CCn1c(SCC(=O)N2CCC(C)CC2)nc2c(c1=O)SC(C)C2 (configuration not stated),"7.94 µM [falling, partial curve, poor fit]",–
Cc1ccc(Cl)cc1NC(=O)CCn1cccc1,"31.6 µM [rising, partial curve, poor fit]",–
COc1cc(-c2noc(C)c2/C=C/c2ccc(N)cc2)cc(OC)c1OC,"0.708 µM [rising, full curve, poor fit]","1 µM [falling, full curve]"
Cc1nn(CC(=O)NCCCN2CCCC2=O)c(C)c1[N+](=O)[O-],"29.1 µM [rising, single point]",–
c1ccc(-c2noc(-c3ccno3)n2)nc1,"11.2 µM [rising, single point]",–
NC(=O)C1CCCN(S(=O)(=O)c2ccccc2)C1 (configuration not stated),"29.1 µM [rising, single point]",–
Cc1ccc(C(=O)N2CCN(c3ccc(NC(=O)COc4ccccc4C)cc3)CC2)cc1,"25.1 µM [falling, single point]",–
O=C(CC1CCCCC1)NCCCN1CCOCC1,"3.98 µM [falling, single point]",–
O=C(c1ccc(CSc2nc3ccncc3[nH]2)cc1)N1CCN(c2cccc(Cl)c2)CC1,"18.4 µM [falling, single point]",–
CC(C)C(=O)Nc1nc2cc3c(cc2s1)OCCO3,"15.8 µM [falling, single point]",–
O=C(NC(=S)NNC(=O)c1cc2ccccc2cc1O)c1ccco1,"7.94 µM [falling, partial curve]",–
O=C1Nc2cc(C(=O)N3CCOCC3)ccc2S/C1=C\c1ccccc1,"35.5 µM [falling, single point]",–
Cc1ccc(-n2ncc3c(NCc4cccnc4)ncnc32)c(C)c1,"7.31 µM [falling, partial curve]",–
CC(=O)N1c2ccc(S(=O)(=O)NCC3CCC(C(=O)NCc4ccco4)CC3)cc2CC1C (configuration not stated),"0.282 µM [falling, full curve, poor fit]",–
Cc1noc(C(=O)N(C)c2ccccc2)c1Cl,"14.1 µM [rising, partial curve, poor fit]",–
c1ccc(-c2noc(CSc3nnnn3-c3ccccc3)n2)cc1,"0.126 µM [rising, full curve, poor fit]",–
CC(=O)C(Cl)C(=O)Nc1ccccc1 (configuration not stated),"10 µM [falling, partial curve]",–
COC(=O)C(=Cc1ccc(-c2ccsc2C(=O)OC)o1)C(=O)OC,"7.94 µM [falling, partial curve]",–

Structure (SMILES),AC50 [1],AC50 [2]
CN(C)C1NC(=O)c2cc(-c3ccccc3)sc2N1 (configuration not stated),"35.5 µM [falling, single point]",–
Cc1ccc(C(=O)N/C(=C\c2ccccc2)C(=O)NCc2ccncc2)cc1,"3.98 µM [rising, partial curve, poor fit]",–
CC(C(=O)O)c1ccc(N2Cc3ccccc3C2=O)cc1 (configuration not stated),"17.8 µM [falling, partial curve, poor fit]",–
Cc1ccc(C(C(=O)NC2CCCCC2)N(C(=O)c2csnn2)C2CCCC2)o1 (configuration not stated),"0.731 µM [falling, partial curve, poor fit]",–
CC1(C)CC(=O)C2=C(C1)N1C(=C(C#N)C2c2ccc(Cl)cc2)N=C(N)c2ccccc21 (configuration not stated),"16.4 µM [falling, single point]",–
O=C(NCCC1=CCCCC1)C1CCCN(S(=O)(=O)c2cccc3cccnc23)C1 (configuration not stated),–,"12.6 µM [falling, partial curve, poor fit]"
O=C(Cc1cccs1)Nc1nncs1,"18.4 µM [falling, partial curve, poor fit]",–
c1cc2c(cc1C1=Nn3c(nnc3C3CCCCC3)SC1)OCO2,"2.91 µM [falling, partial curve]",–
O=C(CCC(=O)N(CC(=O)NC1CCCCC1)c1ccc(F)cc1)Nc1nccs1,"7.08 µM [falling, full curve]",–
COc1ccc(NC(=O)NC(C(F)(F)F)C(F)(F)F)cc1,"29.1 µM [rising, single point]",–
CCOc1ccc(NC(=S)NC(=O)C2CCCC2)cc1,"35.5 µM [rising, single point]",–
CC(=C\c1ccccc1)/C=C1/SC(=S)N(CCC(=O)O)C1=O,"0.316 µM [falling, full curve]",–
S=C(Nc1ccc(Cl)cc1Cl)Nn1cnnc1,"1.84 µM [rising, full curve, poor fit]",–
S=c1nc2ccccc2c2nc(-c3ccccc3Br)[nH]n12,"3.55 µM [rising, full curve]","0.631 µM [falling, full curve, poor fit]"
O=C(NCCC1=CCCCC1)C(=O)NCC(c1ccco1)N1CCN(c2ccccc2F)CC1 (configuration not stated),"0.517 µM [rising, full curve, poor fit]",–
O=c1oc(-c2ccccc2Br)nc2ccccc12,"1.12 µM [rising, partial curve, poor fit]",–
CN(C)c1ccc(C(=O)NCC(c2cccs2)N2CCOCC2)cc1[N+](=O)[O-] (configuration not stated),"23.1 µM [rising, partial curve]",–
COC(=O)[C@H](CC(C)C)NS(=O)(=O)N(Cc1ccccc1)[C@@H](CC(C)C)C(=O)OC,"29.1 µM [falling, single point]",–
O=S(=O)(Nc1ccc2c(c1)nc1n2CCN(Cc2ccccc2)C1)c1ccccc1,"6.51 µM [falling, partial curve]",–
CC(=O)N1CCC(C(=O)Nc2ccc3c(c2)CCC3)CC1,"14.1 µM [rising, single point]",–
CCCOc1ccc([C@@H]2C3CN(C(=O)OCC)CC=C3C(C#N)=C(N)C2(C#N)C#N)cc1OC (some centres not stated),"16.4 µM [falling, partial curve, poor fit]",–
COc1ccc(N(CC(=O)NCCSc2ccccn2)S(C)(=O)=O)cc1Cl,"11.2 µM [rising, partial curve, poor fit]",–

# 5 of the compounds above, bar-delimited:
Structure (SMILES) | AC50 [1] | AC50 [2]
COc1ccc(NC(=O)NC(C(F)(F)F)C(F)(F)F)cc1 | 29.1 µM [rising, single point] | –
CCOc1ccc(NC(=S)NC(=O)C2CCCC2)cc1 | 35.5 µM [rising, single point] | –
CC(=C\c1ccccc1)/C=C1/SC(=S)N(CCC(=O)O)C1=O | 0.316 µM [falling, full curve] | –
S=C(Nc1ccc(Cl)cc1Cl)Nn1cnnc1 | 1.84 µM [rising, full curve, poor fit] | –
S=c1nc2ccccc2c2nc(-c3ccccc3Br)[nH]n12 | 3.55 µM [rising, full curve] | 0.631 µM [falling, full curve, poor fit]

# Additional structures.

Structure (SMILES),AC50 [1],AC50 [2]
Cc1ccccc1C(=O)Nc1ccc2c(c1)nc(CCNC(=O)c1ccco1)n2C,"17.8 µM [falling, partial curve, poor fit]",–
CCOc1ccc(NCCC(=O)c2ccc3c(c2)OCO3)cc1,"3.26 µM [falling, single point]",–
COc1ccc(CC(=O)OCC(=O)NC(=O)NC2CCCC2)cc1,"29.1 µM [rising, single point]",–
COc1c(C)cc(Br)cc1C(=O)NC(=S)NCc1ccco1,"3.98 µM [rising, partial curve, poor fit]",–
COc1ccc(/C=C/C(=O)NCc2cnn(C)c2C)cc1COc1ccc(Br)cc1,"25.1 µM [falling, single point]",–
COc1ccc(OC)c(CN2CCC(CO)(CCOc3ccccc3)CC2)c1,"35.5 µM [rising, single point]",–
O=S(=O)(/N=C(/Nc1ccccc1F)c1ccccc1)c1ccccc1,"1.3 µM [falling, full curve, poor fit]",–
CC(CN1CCCCC1)OC(=O)c1ccc(Cl)cc1Cl (configuration not stated),"3.26 µM [rising, single point]",–
COc1ccc(C2=Nn3c(nnc3-c3cc(C)[nH]n3)SC2)cc1,–,"12.6 µM [falling, single point]"
CCN(CC)CCOC(=O)c1ccc(NC(=O)CCCN2C(=O)/C(=C/c3cccs3)SC2=S)cc1,"3.98 µM [falling, full curve]",–
CC(=O)Nc1ccc2nc(-c3cccs3)[nH]c2c1,"12.6 µM [falling, partial curve, poor fit]",–
COc1cc(CNc2ccccc2SC)cc(OC)c1OC,"0.259 µM [rising, full curve, poor fit]",–
COc1cccc(NC(=O)c2cc(=O)c3ccccc3o2)c1,"35.5 µM [falling, single point]",–
O=C(NCCc1cccc(Cl)c1)c1cccc([N+](=O)[O-])c1,"29.1 µM [falling, single point]","32.6 µM [rising, partial curve, poor fit]"
Cc1cc(C)c(S(=O)(=O)c2ccccc2)c(OC(=O)c2ccc(Cl)cc2Cl)n1,"20.6 µM [rising, partial curve, poor fit]",–
CC1=C(C)CC(C(=O)NC2CCN(C(C)C)CC2)C(C(=O)O)C1 (configuration not stated),"3.98 µM [falling, partial curve, poor fit]",–
O=C(CCSc1nc(-c2ccco2)cc(C(F)(F)F)n1)NCCN1CCOCC1,"20 µM [falling, partial curve, poor fit]",–
COC(=O)c1ccccc1NC(=O)C1CCN(c2ncnc3c2nc2n3CCCCC2)CC1,"35.5 µM [falling, single point]",–
COc1ccc(Br)c(C(=O)Nc2cccc(Cl)c2Cl)c1,"11.6 µM [rising, partial curve, poor fit]",–
O=C(NC1CC1)c1cc(-c2ccc(Br)cc2)nc2ccccc12,"6.51 µM [rising, partial curve, poor fit]",–

# From PubChem BioAssay AID493014 (National Center for Advancing Translational Sciences (NCATS), 2011)
